Source: PMC10163288
Some of the results follow.

B1: il10ra_site1_sap_19_mot_HHH_b1_00531_af2_000000024_0001_1_19_H_._HHH_b1_05833_af2_0001_0000100001_0000001_0_0001 (protein)
chain: SSSSDEELEEFEEEIEELLKEGDYERALRLIAEALRHAFQANDPEVLRRLWELAKEAARSSSSSS
B2: il10ra_site1_sap_19_mot_HHH_b2_04275_000000272_0001_20_36_H_._HHH_b1_02692_0001_0000400042_0000003_0_0001 (protein)
chain: SSSSSDIEEEVRQLLEELEEHGDPELRQRLIQAVWRLVKLAAENNDDEKLRLALEALKLASSSSS
B3: il10ra_site1_sap_25_mot_HEEHE_1893_000000002_0001_40_56_H_._43642e40158d6d50ca32f4d9c2045359_0001_0001_0000200014_0000001_0_0001 (protein)
chain: SSSSSREELHELLRLIARVFVRGDEEELEELLEEAIKIAEELNNEKAVEALRMFLENLRRLSSSS
B4: il10ra_site1_normal_mot_HHH_b1_05937_af2_000000262_0001_20_37_H_._HHH_b2_04780_af2_0001_0000200010_0000002_0 (protein)
chain: SSSSDEEEEELKRLEERIEEAIEKNDDELALRLIIELIRLAFRARDPEALRAAWELAKRIHSSSS
B5: il10ra_site1_sap_11_mot_2c1a291787c6f40772924d4e9068d803_0001_af2_000000222_0001_34_48_H_._HHH_b1_06580_af2_0001_0000500013_0000001_0_0001 (protein)
chain: SSSSDQQEELLEALARLIEQALEAGNPEQARRLIEALKLNAERLGDEEAREIVEELERLVNSSSS
B6: il10ra_site1_sap_23_mot_HHH_b1_06994_000000193_0001_40_55_H_._HHH_b2_01485_0001_0000300021_0000002_0_0001_af2pred_0001 (protein)
chain: SSSSSIREKIIELLFKAIELYANGNPEEAERLIEEAQELAEELGDPELEEAIERVERQVKSSSSS
B7: il10ra_site1_sap_24_mot_HHH_b2_03220_af2_000000223_0001_23_40_H_._HHH_b2_04722_0001_0000200012_0000001_0_0001_af2pred_0001 (protein)
chain: SSSSDEEERLAELLFEAIKRLIELGDEERARLALKALRHTAEATNDPHARELVEELEELLSSSSS
B8: il10ra_site1_sap_25_mot_HHH_b1_03314_af2_000000278_0001_42_55_H_._HHH_b2_06475_0001_0000100004_0000001_1_0001_af2pred_0001 (protein)
chain: SSSDEEVRKEVEELLEEIEELEEEDDERRMAELALKIFKLALRTGDPKVTELLEKAIELARSSSS
B9: il10ra_site1_normal_mot_HHH_b1_05185_000000011_0001_22_39_H_._HHH_b1_02309_0001_0000300043_0000001_0 (protein)
chain: SSSSSSDAEEYLELAIKFAKRVDEETARRLLRIAEQLARRHNDEELLKEIEELLEEVESSSSSSS
B10: il10ra_site1_normal_mot_HHH_b2_06979_000000158_0001_42_57_H_._HHH_b2_06735_af2_0001_0000100004_0000001_0 (protein)
chain: SSSSDAELAQEAIRIIREAVELFRNGNPEEARRLLEELREELEEAGNRLLLLNVEYLLRDLSSSS

target: il10ra, Q13651; assay: yeast display titration

Apparent Kd, inactive:
B1 no binding seen
B2 no binding seen
B3 no binding seen
B4 no binding seen
B5 no binding seen
B6 no binding seen
B7 no binding seen
B8 no binding seen
B9 no binding seen
B10 no binding seen
